Patent US20090162869A1 (RIKEN, published 2009)
No constants are given. Whether binding was seen depends on the method and setting. In cells and extracts the contact can be indirect. Some entries that bind do so weakly or less than the wild type.

By UniProt entry, the sequences of proteins in these tests, tags left out. Residues count along the entry.
UniProt P70206, residues 28-1894: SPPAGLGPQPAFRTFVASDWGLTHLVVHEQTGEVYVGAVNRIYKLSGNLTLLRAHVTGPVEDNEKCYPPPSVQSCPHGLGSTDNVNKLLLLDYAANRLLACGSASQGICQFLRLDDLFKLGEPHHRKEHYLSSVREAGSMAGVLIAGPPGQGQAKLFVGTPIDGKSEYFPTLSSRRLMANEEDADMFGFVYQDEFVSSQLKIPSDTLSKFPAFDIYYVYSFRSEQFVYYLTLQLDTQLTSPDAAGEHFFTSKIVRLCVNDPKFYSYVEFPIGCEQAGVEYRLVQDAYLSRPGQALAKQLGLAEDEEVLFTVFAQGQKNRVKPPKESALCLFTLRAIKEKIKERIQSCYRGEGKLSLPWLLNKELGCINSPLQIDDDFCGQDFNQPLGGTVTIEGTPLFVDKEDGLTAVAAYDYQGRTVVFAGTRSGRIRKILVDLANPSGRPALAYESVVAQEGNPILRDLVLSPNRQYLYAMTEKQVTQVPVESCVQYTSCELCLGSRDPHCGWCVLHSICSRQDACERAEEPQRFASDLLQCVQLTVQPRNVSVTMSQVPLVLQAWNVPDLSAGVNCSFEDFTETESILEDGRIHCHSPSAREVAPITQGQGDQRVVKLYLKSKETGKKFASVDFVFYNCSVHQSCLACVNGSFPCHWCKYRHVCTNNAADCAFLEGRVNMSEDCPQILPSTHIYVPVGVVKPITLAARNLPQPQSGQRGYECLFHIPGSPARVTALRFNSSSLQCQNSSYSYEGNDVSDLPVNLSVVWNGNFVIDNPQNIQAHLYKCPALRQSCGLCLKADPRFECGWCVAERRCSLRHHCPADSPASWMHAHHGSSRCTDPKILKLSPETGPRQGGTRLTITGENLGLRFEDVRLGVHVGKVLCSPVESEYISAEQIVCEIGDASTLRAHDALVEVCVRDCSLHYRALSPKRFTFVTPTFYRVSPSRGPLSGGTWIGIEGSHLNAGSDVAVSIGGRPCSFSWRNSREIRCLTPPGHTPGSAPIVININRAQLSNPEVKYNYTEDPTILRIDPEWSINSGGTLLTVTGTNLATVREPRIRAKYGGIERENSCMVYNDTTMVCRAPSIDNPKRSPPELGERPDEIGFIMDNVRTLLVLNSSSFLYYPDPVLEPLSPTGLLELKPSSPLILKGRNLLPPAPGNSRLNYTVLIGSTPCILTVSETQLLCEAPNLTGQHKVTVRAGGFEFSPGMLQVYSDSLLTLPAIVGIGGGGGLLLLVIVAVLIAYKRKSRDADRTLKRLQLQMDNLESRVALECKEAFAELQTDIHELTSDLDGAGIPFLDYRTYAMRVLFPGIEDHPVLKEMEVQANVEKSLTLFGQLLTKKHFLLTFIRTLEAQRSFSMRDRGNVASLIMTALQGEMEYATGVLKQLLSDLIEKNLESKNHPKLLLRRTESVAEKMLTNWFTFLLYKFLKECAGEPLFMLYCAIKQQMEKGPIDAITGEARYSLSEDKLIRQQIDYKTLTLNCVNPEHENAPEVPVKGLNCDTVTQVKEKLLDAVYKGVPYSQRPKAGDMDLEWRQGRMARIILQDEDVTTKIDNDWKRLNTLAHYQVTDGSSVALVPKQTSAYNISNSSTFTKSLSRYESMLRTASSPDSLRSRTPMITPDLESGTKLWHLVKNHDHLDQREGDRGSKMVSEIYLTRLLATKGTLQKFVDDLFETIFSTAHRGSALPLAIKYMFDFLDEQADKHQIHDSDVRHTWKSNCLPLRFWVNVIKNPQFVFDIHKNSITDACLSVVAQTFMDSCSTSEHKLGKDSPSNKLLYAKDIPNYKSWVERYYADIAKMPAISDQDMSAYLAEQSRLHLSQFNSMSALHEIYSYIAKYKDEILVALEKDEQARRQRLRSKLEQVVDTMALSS

Target: Plexin-A1, endogenous in mouse bone marrow cell-derived PDC (mouse) (UniProt P70206)
Experiment: restatement of the co-immunoprecipitation results of the earlier examples

binding: binds
B1: membrane molecule (A) of the present invention (PDC-TREM), mouse, full length (receptor)
chain: QNPELLRTQEGETVSVTCWYDSLYHSSEKIWCKQIDNLCYPFVSKSAEKPRFLIQQSSRFNFFTVTMTKLKMSDSGIYHCGIVANNTSVYLRNIHLVVSKGSSVVSTPDIIPATRLTKLPTLITTKHSPSDTTTTRSLPQPTTVVSSPDPRVIIINGTDADRGFVSSVTIPVVCGLLSKTLVFTVLFIVTQKSFGRQAMKAHNSNS
notes: also called the present membrane molecule
